# Among all 320,000 compounds or so, about 2,100 (0.66%) were called active. Inconclusive means that the source gave no clear call. Such entries were picked first, then a sample of the others. The call rests on the fitted dose curve; in most records, active means well fitted inhibition curve with a large enough effect in the signal ratio, with a control signal flat (not every such curve was filed as active); inconclusive means small, poorly fitted or top-dose-only effect, or effect the other way, or a change in a side signal; inactive means flat fitted curve, though single readings scatter; the % refers to the signal ratio. Where the call is inconclusive, the potency comes from a doubtful curve fit.
# Experiment: qHTS Assay for Lipid Storage Modulators in Drosophila S3 Cells
# Settings: BODIPY lipid droplet fluorescence, 18-24 h, cells fed with added oleic acid; lipid storage change, negative = inhibition: at 46.1 µM (top of the series) unless noted
# Method in brief: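 Drosophila S3 cells loaded with oleic acid (400 uM, as added) and compounds at several concentrations; lipid droplets imaged by 488-nm laser-scanning cytometry, 500–530 nm intensity and object ratio to cell channel. Percent activity normalized to 20 uM Triacsin C.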
# On the % scale 0 is the no-effect control and ±100 the full control effect; potency means the concentration at half of the fitted maximal effect.
Structure (SMILES),Potency,"lipid storage change, negative = inhibition"
Cc1cccc([C@@H](NC(=O)OC(C)(C)C)C(=O)OC(C)(C)C)c1,"inconclusive: 0.0052 µM [activator, full curve, poor fit]",
CC(/C=C/c1ccccc1)=N\NC(N)=S,,inconclusive: -6.88%
O=C(COC(=O)c1ccc2c(c1)OCO2)Nc1nc(-c2ccccc2)cs1,"inconclusive: 29.1 µM [falling, single point]",
COc1ccccc1N1CCN(c2nc(C)nc3c2oc2ccccc23)CC1,,inconclusive: 16.7%
O=C(NC1CC1)c1sc2cc(F)ccc2c1Cl,"inconclusive: 0.731 µM [falling, single point]",
Cc1ccc(OCC(O)CNCc2ccc(F)cc2)cc1 (centres undefined),,inconclusive: 14.1%
CCOC(=O)N1CCC(NC(=O)CSCc2nc(-c3cccc(OC)c3)oc2C)CC1,"inconclusive: 2.31 µM [rising, partial curve]",
Cc1ccc(NC(=S)N/N=C/c2c(C)nn(-c3ccccc3)c2N2CCCC2)cc1,,inconclusive: 1.17%
CN(C)C(=O)c1ccc(-c2cc(C(F)(F)F)nn2C)s1,,inconclusive: -30%
Cc1ccc(NC(=O)COc2ccc(-c3nnco3)cc2)cc1S(=O)(=O)N1CCOCC1,,inconclusive: 26%
Cc1ccc(C2=CSC3=NCCN23)c(C)c1,,inconclusive: -20.9%
CC12C(=O)N(c3nccs3)C(=O)C1C1C=CC2C1 (centres undefined),"inconclusive: 29.1 µM [cytotoxic, single point]",
CCn1c(-c2ccccc2SC)n[nH]c1=S,,inconclusive: -39.1%
O=C(O)CCCC(=O)NCCc1cccc(Cl)c1,,inconclusive: 6.77%
CCN(C(=O)COC(=O)c1ccc(=O)n(Cc2ccccc2)n1)C1CCS(=O)(=O)C1 (centres undefined),"inconclusive: 0.259 µM [falling, single point]",
Cc1cc(C)cc(C(=O)NCc2ccc3c(c2)OCO3)c1,"inconclusive: 29.1 µM [activator, single point]",
Cc1c(Cc2ccccc2)c(=O)oc2c(C)c(OCC(=O)N[C@@H](Cc3ccccc3)C(=O)O)ccc12,"inconclusive: 18.4 µM [activator, single point]",
Nc1cc(C2CCCC2)nn1-c1ccccc1,,inconclusive: 19%
CCOc1ccc(NC(=O)C/C(C)=N/NC(=O)c2cnccn2)cc1,,inconclusive: 23.4%
Cc1ccc(-n2ccc(=O)c(C(=O)Nc3ccc(S(=O)(=O)Nc4nccs4)cc3)n2)cc1,,inconclusive: 1%
O=C(Nc1ccccc1)C1CCN(C(=O)c2ccccc2)CC1,,inconclusive: 41.4%
Cc1nonc1OC(C)CNCCNc1ccc([N+](=O)[O-])cc1 (centres undefined),,inconclusive: 9.45%
CCC(c1nnc(SCC(=O)NC23CC4CC(CC(C4)C2)C3)o1)N(C)C (centres undefined),"inconclusive: 23.1 µM [falling, single point]",
Cc1ccccc1N(C(=O)c1csnn1)C(C(=O)NC1CCCCC1)c1ccncc1 (centres undefined),,inconclusive: -30.3%
COc1cc2c(cc1NC(=O)COC(=O)[C@@H](NC(=O)c1ccccc1)C(C)C)oc1ccccc12,,inconclusive: -24.8%

# A second format for part of the listing above:
Structure (SMILES)	Potency	lipid storage change, negative = inhibition
Cc1ccc(NC(=S)N/N=C/c2c(C)nn(-c3ccccc3)c2N2CCCC2)cc1		inconclusive: 1.17%
CN(C)C(=O)c1ccc(-c2cc(C(F)(F)F)nn2C)s1		inconclusive: -30%
Cc1ccc(NC(=O)COc2ccc(-c3nnco3)cc2)cc1S(=O)(=O)N1CCOCC1		inconclusive: 26%

# (cont.)

Structure (SMILES),Potency,"lipid storage change, negative = inhibition"
Cc1ccc(C(=O)CCNc2cccc(Br)c2)o1,,inconclusive: -34.7%
C/C=C/c1ccc(OCCCNC2CCCC2)c(OC)c1,,inconclusive: -148%
O=C(Nc1ccccc1C(=O)OCC(=O)c1c[nH]c2ccccc12)c1ccco1,,inconclusive: -41.9%
Cc1ccc(CNC(=O)CN(c2ccc(C(C)C)cc2)S(=O)(=O)c2c(C)noc2C)cc1,,inconclusive: -65.6%
OCCNc1cnc2ccccc2n1,,inconclusive: -18.4%
CCOC(=O)Cc1csc(NC(=S)NC(=O)c2ccc(Cl)cc2)n1,,inconclusive: 17.8%
Cc1noc(C)c1C(=O)OCC(=O)N(C)C1(C#N)CCCCC1,,inconclusive: -7.85%
O=C1NC2(CCCCC2)Cc2ccccc21,,inactive: 20.7%
O=C(c1ccc(OC2CCN(C/C=C/c3ccccc3)CC2)cc1)N1CCCC1,,inconclusive: -2.83%
COc1cccc(/C=C2\SC(=S)N(CCCC(=O)N3CCCCC3)C2=O)c1,"inconclusive: 10.3 µM [falling, single point]",
OCCC1CN(Cc2cc3ccccc3o2)CCN1Cc1ccc(F)cc1 (centres undefined),"inconclusive: 14.6 µM [activator, partial curve, poor fit]",
COc1cccc(C(=O)c2cc3ccc(O)cc3oc2=O)c1,,inconclusive: -23.1%
COC(=O)/C(=C/Nc1cccc2ccccc12)[N+](=O)[O-],,inconclusive: -21.9%
Cc1cccc(N2CCN(S(=O)(=O)c3ccc(S(=O)(=O)N4CCCC4)cc3)CC2)c1C,"inconclusive: 0.0259 µM [falling, full curve, poor fit]",
COc1ccc(S(=O)(=O)N2CCOCC2)cc1C(=O)NCC(c1ccco1)N1CCCC1 (centres undefined),,inconclusive: 16.9%
CN(C)c1ccc(C(c2nnnn2C(C)(C)C)N2CCc3ccccc3C2)cc1 (centres undefined),,inconclusive: 4.36%
Cc1onc(-c2ccccc2Cl)c1C(=O)N1CCC(C(N)=O)CC1,"inconclusive: 4.11 µM [falling, single point]",
Cc1ccc(C)c(N2CCN(C(=O)CN(C)S(=O)(=O)c3ccc4c(c3)CCC(=O)N4)CC2)c1,"inconclusive: 8.2 µM [falling, partial curve]",
COc1cc(C)c(Cl)cc1S(=O)(=O)NCc1ccco1,,inconclusive: 1.11%
O=C(NC1CCCN(c2ccc(C(F)(F)F)cn2)C1)c1cc(Cl)ccc1F (centres undefined),"inconclusive: 29.1 µM [falling, single point]",
COc1ccc(NC(=O)c2sc3nc(C)nc(N4CCN(c5ccccn5)CC4)c3c2C)c(OC)c1,,inconclusive: 50.8%
O=C(NC1CCN(Cc2ccccc2)CC1)C1COc2ccccc2O1 (centres undefined),,inconclusive: 29.5%
O=C(O)CCCN1C(=O)/C(=C/c2ccc(-c3nc4ccccc4s3)o2)SC1=S,,inconclusive: -31.5%
CC(=O)SCC(C)C(=O)NCc1ccccc1 (centres undefined),"inconclusive: 4.11 µM [falling, full curve, poor fit]",

# — PubChem BioAssay AID2685 (National Center for Advancing Translational Sciences (NCATS), 2010)
